Laboratory results: the supplement of paper PMC6078165

Test system: BT20
Assay: relative JC-1 red fluorescence (viability) vs pre-drug, coculture with fibroblast (fraction); higher = more viable cancer cells
Description: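 JC-1 labelled TNBC cells cocultured 1:1 (1,500 cells each) with CellTrace Violet stained primary or stromal fibroblasts in 384-well plates in FluoroBrite medium, treated with one of 42 anticancer drugs at 0.1, 1, 10 or 100 uM. JC-1 red fluorescence (mitochondrial integrity in cancer cells only) was read by plate reader every 8 h for 72 h. Values are normalised to each well's pre-drug value. The stock of one drug was tenfold lower, so its dose labels may be too high.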

CC(=O)O[C@@]12CO[C@@H]1C[C@H](O)[C@@]1(C)C(=O)[C@H](O)C3=C(C)[C@@H](OC(=O)[C@H](O)[C@@H](NC(=O)OC(C)(C)C)c4ccccc4)C[C@@](O)([C@@H](OC(=O)c4ccccc4)[C@H]21)C3(C)C [Docetaxel]
relative JC-1 red fluorescence
Details	8 h	16 h	24 h	32 h	40 h	48 h	56 h	64 h	72 h
0.1 µM, coculture fibroblast: C12385	0.893	0.806	0.757	0.68	0.603	0.562	0.527	0.516	0.517
0.1 µM, coculture fibroblast: H6013	0.90837	0.86	0.824	0.773	0.725	0.696	0.701	0.684	0.681
0.1 µM, coculture fibroblast: H6019	0.855	0.799	0.785	0.73	0.676	0.65	0.598	0.575	0.564
0.1 µM, coculture fibroblast: H6076	0.881	0.936	0.813	0.77	0.701	0.658	0.63	0.619	0.61
0.1 µM, coculture fibroblast: H6231	0.836	0.916	0.7561	0.688	0.63	0.591	0.541	0.516	0.499
0.1 µM, coculture fibroblast: HADF	0.9677	0.868	0.819	0.755	0.729	0.698	0.678	0.674	0.66
0.1 µM, coculture fibroblast: HCFa	0.895	0.834	0.8	0.722	0.672	0.62	0.577	0.552	0.512
0.1 µM, coculture fibroblast: HCPF	0.899	0.892	0.7959	0.737	0.671	0.632	0.599	0.598	0.555
0.1 µM, coculture fibroblast: HHSteC	0.943	0.878	0.84	0.75	0.705	0.665	0.63	0.611	0.577
0.1 µM, coculture fibroblast: HMF	0.862	0.908	0.8206	0.757	0.684	0.626	0.59	0.562	0.55
0.1 µM, coculture fibroblast: HPFa	0.908	0.895	0.886	0.798	0.781	0.724	0.713	0.696	0.67
0.1 µM, coculture fibroblast: HUF	0.873	0.849	0.823	0.724	0.652	0.592	0.543	0.521	0.511
0.1 µM, coculture fibroblast: Hs5	0.6962	0.927	0.82	0.742	0.68	0.623	0.588	0.552	0.53
0.1 µM, coculture fibroblast: Hs27A	0.762	0.91	0.814	0.867	0.923	0.943	0.868	0.927	0.9083
0.1 µM, coculture fibroblast: Hs343T	0.983	0.89547	0.775	0.706	0.648	0.599	0.553	0.541	0.516
0.1 µM, coculture fibroblast: WS1	0.869	0.797	0.748	0.6641	0.596	0.553	0.5153	0.498	0.491
1 µM, coculture fibroblast: C12385	0.911	0.826	0.754	0.681	0.611	0.564	0.526	0.51	0.501
1 µM, coculture fibroblast: H6013	0.963	0.859	0.859	0.793	0.739	0.725	0.744	0.736	0.73
1 µM, coculture fibroblast: H6019	0.8575	0.7793	0.773	0.721	0.676	0.653	0.618	0.602	0.588
1 µM, coculture fibroblast: H6076	0.894	0.892	0.809	0.771	0.727	0.692	0.67	0.68	0.672
1 µM, coculture fibroblast: H6231	0.8436	0.944	0.799	0.708	0.627	0.557	0.49	0.462	0.429
1 µM, coculture fibroblast: HADF	0.9919	0.92	0.854	0.8	0.761	0.728	0.713	0.7	0.689
1 µM, coculture fibroblast: HCFa	0.941	0.871	0.832	0.752	0.696	0.648	0.621	0.596	0.548
1 µM, coculture fibroblast: HCPF	0.858	0.875	0.791	0.741	0.692	0.646	0.614	0.612	0.583
1 µM, coculture fibroblast: HHSteC	0.911	0.844	0.864	0.778	0.741	0.705	0.686	0.6657	0.633
1 µM, coculture fibroblast: HMF	0.822	0.88017	0.724	0.6303	0.54852	0.49	0.422	0.393	0.369
1 µM, coculture fibroblast: HPFa	0.9183	0.817	0.832	0.73	0.702	0.651	0.657	0.646	0.637
1 µM, coculture fibroblast: HUF	0.926	0.886	0.853	0.769	0.7	0.641	0.611	0.604	0.589
1 µM, coculture fibroblast: Hs5	0.785	0.935	0.847	0.8014	0.748	0.712	0.668	0.654	0.631
1 µM, coculture fibroblast: Hs27A	0.755	0.941	0.895	0.897	0.818	0.766	0.84	0.828	0.783
1 µM, coculture fibroblast: Hs343T	0.914	0.869	0.709	0.596	0.5	0.427	0.3378	0.3	0.263
1 µM, coculture fibroblast: WS1	0.8909	0.81	0.796	0.738	0.679	0.643	0.601	0.597	0.604
10 µM, coculture fibroblast: C12385	0.881	0.858	0.86	0.817	0.748	0.721	0.693	0.681	0.667
10 µM, coculture fibroblast: H6013	0.949	0.92	0.883	0.847	0.816	0.786	0.784	0.777	0.769
10 µM, coculture fibroblast: H6019	0.871	0.838	0.843	0.818	0.801	0.799	0.785	0.78	0.773
10 µM, coculture fibroblast: H6076	0.838	0.927	0.872	0.865	0.831	0.815	0.824	0.827	0.821
10 µM, coculture fibroblast: H6231	0.813	0.937	0.822	0.747	0.667	0.593	0.535	0.507	0.477
10 µM, coculture fibroblast: HADF	0.9579	0.917	0.873	0.836	0.812	0.756	0.744	0.724	0.697
10 µM, coculture fibroblast: HCFa	0.967	0.931	0.889	0.832	0.795	0.755	0.726	0.71	0.685
10 µM, coculture fibroblast: HCPF	0.9733	0.902	0.857	0.82	0.778	0.7452	0.7195	0.716	0.673
10 µM, coculture fibroblast: HHSteC	0.948	0.933	0.901	0.835	0.822	0.789	0.752	0.729	0.705
10 µM, coculture fibroblast: HMF	0.827	0.956	0.867	0.804	0.758	0.693	0.663	0.629	0.611
10 µM, coculture fibroblast: HPFa	0.94	0.858	0.838	0.753	0.711	0.652	0.616	0.582	0.549
10 µM, coculture fibroblast: HUF	0.893	0.82	0.794	0.725	0.66	0.606	0.578	0.5462	0.5302
10 µM, coculture fibroblast: Hs5	0.935	0.9313	0.8751	0.835	0.7925	0.77	0.762	0.743	0.754
10 µM, coculture fibroblast: Hs27A	0.805	0.716	0.988	0.792	0.926	0.963	0.9361	0.891	0.834
10 µM, coculture fibroblast: Hs343T	0.857	0.915	0.814	0.755	0.684	0.637	0.581	0.566	0.525
10 µM, coculture fibroblast: WS1	0.855	0.793	0.7575	0.6981	0.638	0.602	0.563	0.526	0.51
100 µM, coculture fibroblast: C12385	0.877	0.817	0.749	0.683	0.631	0.591	0.555	0.519	0.499
100 µM, coculture fibroblast: H6013	0.9661	0.932	0.916	0.895	0.859	0.842	0.862	0.858	0.843
100 µM, coculture fibroblast: H6019	0.8805	0.832	0.821	0.792	0.767	0.765	0.744	0.728	0.717
100 µM, coculture fibroblast: H6076	0.903	0.9397	0.851	0.799	0.749	0.713	0.7	0.709	0.704
100 µM, coculture fibroblast: H6231	0.844	0.914	0.809	0.762	0.723	0.685	0.66	0.641	0.637
100 µM, coculture fibroblast: HADF	0.893	0.943	0.856	0.817	0.766	0.727	0.695	0.686	0.653
100 µM, coculture fibroblast: HCFa	0.95	0.807	0.879	0.788	0.847	0.811	0.769	0.732	0.688
100 µM, coculture fibroblast: HCPF	0.758	0.9065	0.801	0.749	0.699	0.656	0.614	0.614	0.574
100 µM, coculture fibroblast: HHSteC	0.952	0.901	0.869	0.804	0.748	0.721	0.688	0.661	0.629
100 µM, coculture fibroblast: HMF	0.876	0.8994	0.788	0.733	0.677	0.634	0.5993	0.567	0.533
100 µM, coculture fibroblast: HPFa	0.94677	0.878	0.871	0.774	0.755	0.702	0.669	0.641	0.606
100 µM, coculture fibroblast: HUF	0.908	0.84	0.7829	0.703	0.647	0.6	0.572	0.541	0.5149
100 µM, coculture fibroblast: Hs5	0.775	0.855	0.884	0.8214	0.763	0.703	0.657	0.63	0.614
100 µM, coculture fibroblast: Hs27A	0.709	0.804	0.851	0.826	0.787	0.847	0.937	0.83	0.791
100 µM, coculture fibroblast: Hs343T	0.86	0.932	0.827	0.77	0.705	0.656	0.601	0.574	0.551
100 µM, coculture fibroblast: WS1	0.87	0.7983	0.736	0.679	0.627	0.592	0.539	0.507	0.479

The reference is the same well before dosing, and untreated signal decays as well.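 Fibroblast labels name human fibroblasts: mostly primary ones from tissues such as uterus (C12385, HUF), lung (H6013), bone (Hs27A), adrenal (HADF) and skin (WS1), plus mammary HMF and breast cancer-associated Hs343T. The cancer cells are basal-like or mesenchymal-like triple-negative breast cancer lines. The paper calls a changed response a hit when it shifts by more than 3x the replicate standard deviation. The tissue of the other fibroblasts is not given here.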
